{"sequences": {"note": "Sequences of proteins named here, by UniProt entry; tags and fusion partners are left off. A change or cut given only in a name is not applied to a line headed by its entry.", "UniProt Q9UNA4": "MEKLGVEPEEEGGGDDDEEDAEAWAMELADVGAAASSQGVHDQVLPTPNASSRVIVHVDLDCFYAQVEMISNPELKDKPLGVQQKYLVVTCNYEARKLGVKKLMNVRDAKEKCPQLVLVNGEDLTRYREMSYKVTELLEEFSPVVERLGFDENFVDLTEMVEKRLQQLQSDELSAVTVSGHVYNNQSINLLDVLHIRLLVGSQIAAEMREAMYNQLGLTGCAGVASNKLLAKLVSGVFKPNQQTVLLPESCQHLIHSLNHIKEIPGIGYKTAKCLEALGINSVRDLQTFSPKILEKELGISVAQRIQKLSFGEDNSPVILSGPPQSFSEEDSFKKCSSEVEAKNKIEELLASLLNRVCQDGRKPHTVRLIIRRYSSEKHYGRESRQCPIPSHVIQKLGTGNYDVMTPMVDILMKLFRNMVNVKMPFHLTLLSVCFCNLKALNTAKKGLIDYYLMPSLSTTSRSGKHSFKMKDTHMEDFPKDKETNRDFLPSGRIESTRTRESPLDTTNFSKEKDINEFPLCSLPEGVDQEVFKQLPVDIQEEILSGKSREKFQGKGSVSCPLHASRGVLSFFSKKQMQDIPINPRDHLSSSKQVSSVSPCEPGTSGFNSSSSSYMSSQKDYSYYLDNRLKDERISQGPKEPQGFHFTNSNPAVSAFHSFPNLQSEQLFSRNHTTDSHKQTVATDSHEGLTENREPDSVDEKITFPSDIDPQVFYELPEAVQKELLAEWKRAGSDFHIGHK"}, "source": "PubChem BioAssay AID588590", "about": "(National Center for Advancing Translational Sciences (NCATS), 2011)", "note": "Out of some 390,000 compounds screened, about 4,000 (1%) were called active. This list was built around the results that the source calls inconclusive (neither active nor inactive); the mix of calls is not that of the screen. Calls follow the shape of the dose curve; as a rule, active = well fitted inhibition curve with a large enough effect; inconclusive = small, poorly fitted or top-dose-only effect, or another doubt; inactive = no such curve, though single readings can be large or run the other way. Potencies of inconclusive entries are doubtful fits and often do not repeat. Potency is read from the fitted curve at half-maximal effect.", "data": [{"molecular_target": "DNA polymerase iota (Homo sapiens) (UniProt Q9UNA4)", "assay": "qHTS for Inhibitors of Polymerase Iota", "conditions": "Pol iota fluorescent replication assay, 10 min; series mostly up to 115 µM", "source_text": "DNA polymerases, such as Pol iota, are specifically involved in DNA repair. Pol iota specifically plays an important role in translesion synthesis, where the normal high-fidelity DNA polymerases cannot proceed and DNA synthesis stalls. […] Thus, while pol eta's (and most likely iota's) normal function is to protect humans against the deleterious consequences of DNA damage, under certain conditions they can have deleterious effects on human health. As a consequence, we propose to utilize a high throughput replication assay to identify small molecule inhibitors of pol iota.\nIn a collaboration between the National Institute of Child Health & Human Development (NICHD) and NIH Chemical Genomics Center, a high-throughput, fluorescent screen was developed to screen the NIH Molecular Libraries Small Molecule Repository (MLSMR). This screen is used to identify inhibitors of pol iota.\nNIH Chemical Genomics Center [NCGC]\nNIH Molecular Libraries Probe Centers Network [MLPCN]\nAssay Submitter (PI): Roger Woodgate, NICHD)\nThree microliters of reagents (buffer in column 3 and 4 as negative control and 10 nM Pol iota in columns 1, 2, and 5-48) will be dispensed into 1,536-well black solid-bottomed plate. Compounds (23 nL) will be transferred via Kalypsys pin tool equipped with 1536-pin array. The plates will then be incubated for 15 min at room temperature, and 1 µL substrate (50 nM final concentration) will be added to start the reaction and kinetically read twice at 0 min and 10 min on the Viewlux reader.", "values": [{"smiles": "CCCn1c2ccccc2c2cnn(CC(=O)Nc3cc(C)c(Cl)cc3OC)c(=O)c21", "Potency": "inconclusive: 100 µM [inhibitor, single point]"}, {"smiles": "N#C/C(=C(/O)CCl)c1nc(-c2ccccc2)cs1", "Potency": "inconclusive: 15.8 µM [inhibitor, partial curve, poor fit]"}, {"smiles": "Cc1ccc(S(=O)(=O)Nc2ccccc2C(=O)Nc2nc(-c3ccc(F)cc3)cs2)cc1", "Potency": "inconclusive: 89.1 µM [inhibitor, partial curve, poor fit]"}, {"smiles": "C#CCOCCOCCOCCNc1nc(N2CCN(C(=O)[C@H](CCC(=O)O)n3cc(C(N)CO)nn3)CC2)nc(N2CCN(C(=O)[C@H](Cc3ccc(O)cc3)n3cc(C(N)[C@H](C)CC)nn3)CC2)n1", "note": "(some centres undefined)", "Potency": "inconclusive: 17.8 µM [inhibitor, partial curve, poor fit]"}, {"smiles": "COc1ccc(C(C#N)N2CCC(c3ccccc3)=N2)cc1", "note": "(centres undefined)", "Potency": "inconclusive: 31.6 µM [inhibitor, partial curve, poor fit]"}, {"smiles": "CCOC(=O)C1=CN(Cc2ccco2)S(=O)(=O)NC1c1ccc(Br)cc1F", "note": "(centres undefined)", "Potency": "inconclusive: 39.8 µM [inhibitor, single point]"}, {"smiles": "CCOC(=O)c1cc(-c2ccccc2)n(-c2cccc(C(=O)Nc3cccc(SC)c3)c2)c1C", "Potency": "inactive"}, {"smiles": "Cc1ccc(-c2cc(=O)[nH]c(NCc3ccccc3)n2)cc1", "Potency": "inconclusive: 79.4 µM [inhibitor, partial curve, poor fit]"}, {"smiles": "COc1ccc(OC)c(C2C(C#N)=C(N)N(N(C)C)C3=C2C(=O)CCC3)c1", "note": "(centres undefined)", "Potency": "inactive"}, {"smiles": "Cc1noc(C)c1C(=O)OCC(=O)c1c[nH]c2ccccc12", "Potency": "inactive"}, {"smiles": "Cc1cc(=O)oc2cc(NC(=O)c3cccc(S(C)(=O)=O)c3)ccc12", "Potency": "inconclusive: 11.2 µM [inhibitor, partial curve]"}, {"smiles": "CCOC(=O)/C(=N\\Nc1ccc(Cl)cc1)Sc1nnc(-c2ccc(OC)cc2)n1C", "Potency": "inconclusive: 89.1 µM [inhibitor, single point]"}, {"smiles": "CCOC(=O)c1cc(C(=O)NCc2ccc(Cl)cc2Cl)nn1C", "Potency": "inconclusive: 112 µM [inhibitor, single point]"}, {"smiles": "COc1ccc(-c2nc(N3CCN(S(=O)(=O)c4ccccc4)CC3)c3ccccc3n2)cc1", "Potency": "inactive"}, {"smiles": "COc1ccccc1NC(=S)NC(=O)/C=C/c1ccco1", "Potency": "inconclusive: 17.8 µM [inhibitor, full curve, poor fit]"}, {"smiles": "O=C(CN1CCN(c2ccc(O)cc2)CC1)N(C1CC1)C1CCS(=O)(=O)C1", "note": "(centres undefined)", "Potency": "inactive"}, {"smiles": "Cc1ccc(S(=O)(=O)N2[C@@H](c3ccc(C(C)C)cc3)C(C(=O)O)=C[C@H]2C(C)(C)C)cc1", "Potency": "inconclusive: 22.4 µM [inhibitor, partial curve, poor fit]"}, {"smiles": "Cc1nn(C)c(C)c1S(=O)(=O)N(CC(=O)NCCc1ccccc1)c1ccc(C(C)C)cc1", "Potency": "inconclusive: 89.1 µM [inhibitor, single point]"}, {"smiles": "CCOC(=O)[C@@H](C)N(C(=O)OC(C)(C)C)S(=O)(=O)N(Cc1ccccc1)[C@@H](C(=O)OC)C(C)C", "Potency": "inactive"}, {"smiles": "Cc1cc(C(=O)Nc2sc3c(c2C#N)CCC3)no1", "Potency": "inconclusive: 14.1 µM [inhibitor, partial curve, poor fit]"}, {"smiles": "C=CCn1c2ccccc2c(=O)c2cc(C#Cc3ccccn3)ccc21", "Potency": "inconclusive: 39.8 µM [inhibitor, single point]"}, {"smiles": "Cc1cccc(N2C(=O)CC(c3ccc(F)cc3)C3=C2COC3=O)c1", "note": "(centres undefined)", "Potency": "inconclusive: 79.4 µM [inhibitor, single point]"}, {"smiles": "Cn1cccc1Cc1nnc(SCC(=O)Nc2ccc3c(c2)OCCO3)n1-c1ccc(F)cc1", "Potency": "inactive"}, {"smiles": "COc1ccc(N(C(=O)Cc2cccs2)C2C=CS(=O)(=O)C2)cc1", "note": "(centres undefined)", "Potency": "inconclusive: 39.8 µM [inhibitor, full curve]"}, {"smiles": "CCOC(=O)C(NC(=O)Cc1ccccc1)(Nc1cc(C)on1)C(F)(F)F", "note": "(centres undefined)", "Potency": "inconclusive: 0.708 µM [inhibitor, full curve, poor fit]"}, {"smiles": "CSc1ccc(Cn2nnc(C(=O)Nc3ccc(C)c(C)c3)c2N)cc1", "Potency": "inconclusive: 79.4 µM [inhibitor, single point]"}, {"smiles": "O=C(Nc1ccc(F)cc1Cl)C1=COCCO1", "Potency": "inconclusive: 25.1 µM [inhibitor, single point]"}, {"smiles": "O=[N+]([O-])c1ccc2c(c1)/C(=N\\O)c1ccccc1-2", "Potency": "inactive"}, {"smiles": "CCN1c2ccccc2-c2nc(SCC(=O)Nc3cccc(C)c3C)ncc2S1(=O)=O", "Potency": "inactive"}, {"smiles": "CCn1cc(C(=O)N(C)Cc2ccccc2)c(=O)c2cc(S(=O)(=O)N3CCc4ccccc4C3)ccc21", "Potency": "inactive"}, {"smiles": "COC(=O)CCC(=O)OC1(C)C(=O)C2=CN(Cc3ccc4c(c3)OCO4)C(c3ccc(OC)cc3)=CC2=C(Br)C1=O", "note": "(centres undefined)", "Potency": "inconclusive: 28.2 µM [inhibitor, partial curve]"}, {"smiles": "CC1=C(c2ccc(Cl)cc2)[N+](=O)C(C)(C)N1[O-]", "Potency": "inconclusive: 39.8 µM [inhibitor, partial curve, poor fit]"}, {"smiles": "COc1cc(C)ccc1OCCSc1nc2ccc(NC(=O)c3ccco3)cc2s1", "Potency": "inactive"}, {"smiles": "Cc1cc(C)nc(N2CCC(C(=O)O)CC2)n1", "Potency": "inconclusive: 2.51 µM [inhibitor, partial curve, poor fit]"}, {"smiles": "CC(=O)Nc1sc(C)c(C)c1C(=O)OCC(=O)Nc1ccc(S(N)(=O)=O)cc1", "Potency": "inconclusive: 50.1 µM [inhibitor, partial curve, poor fit]"}, {"smiles": "Cc1occc1-c1nnc(SCC(=O)c2ccc(F)cc2)o1", "Potency": "inconclusive: 22.4 µM [inhibitor, partial curve, poor fit]"}, {"smiles": "Cc1ccc(C)c(S(=O)(=O)N2CCN(CC(=O)NC(=O)NCc3ccccc3)CC2)c1", "Potency": "inconclusive: 39.8 µM [inhibitor, single point]"}, {"smiles": "O=C(C=Cc1ccccn1)c1ccccc1", "Potency": "inconclusive: 17.8 µM [inhibitor, partial curve]"}, {"smiles": "COc1ccccc1-n1c(SCc2cc(=O)oc3cc(O)ccc23)nc2ccccc2c1=O", "Potency": "inconclusive: 22.4 µM [inhibitor, full curve, poor fit]"}]}]}
